From PubChem BioAssay AID743255 (National Center for Advancing Translational Sciences (NCATS), 2014)
The whole screen tested about 390,000 compounds, of which about 910 (0.23%) were called active. Inconclusive means that the source gave no clear call. Such entries were picked first, then a sample of the others. The call rests on the fitted dose curve; in most records, active means well fitted inhibition curve with a large enough effect; inconclusive means small, poorly fitted or top-dose-only effect; inactive means no such curve, though single readings can be large or run the other way. Where the call is inconclusive, the potency comes from a doubtful curve fit.

The chains behind the UniProt entries cited, without tags or fusion partners. Where a name states a change or a piece, a line headed by the entry shows the natural chain unless it says otherwise.
UniProt O94782: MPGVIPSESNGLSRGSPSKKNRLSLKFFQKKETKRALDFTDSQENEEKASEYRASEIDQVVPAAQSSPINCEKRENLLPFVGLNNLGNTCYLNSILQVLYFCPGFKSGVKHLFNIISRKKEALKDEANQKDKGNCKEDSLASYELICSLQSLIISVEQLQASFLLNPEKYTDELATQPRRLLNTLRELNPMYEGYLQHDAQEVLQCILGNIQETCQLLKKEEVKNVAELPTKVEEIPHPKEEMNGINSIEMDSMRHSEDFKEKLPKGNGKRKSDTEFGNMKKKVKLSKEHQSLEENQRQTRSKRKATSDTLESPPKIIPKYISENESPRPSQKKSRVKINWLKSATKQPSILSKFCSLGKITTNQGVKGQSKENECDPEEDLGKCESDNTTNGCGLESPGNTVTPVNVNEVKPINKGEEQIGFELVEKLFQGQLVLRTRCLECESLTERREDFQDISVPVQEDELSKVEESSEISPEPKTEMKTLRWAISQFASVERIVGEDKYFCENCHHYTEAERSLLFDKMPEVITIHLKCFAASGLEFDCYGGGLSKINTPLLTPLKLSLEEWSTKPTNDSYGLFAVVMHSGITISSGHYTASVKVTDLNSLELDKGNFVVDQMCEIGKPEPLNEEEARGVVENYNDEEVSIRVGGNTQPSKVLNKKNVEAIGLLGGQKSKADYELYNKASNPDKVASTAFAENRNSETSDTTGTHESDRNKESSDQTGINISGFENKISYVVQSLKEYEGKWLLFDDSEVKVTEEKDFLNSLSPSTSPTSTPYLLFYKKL

molecular target: Ubiquitin carboxyl-terminal hydrolase 1 (Homo sapiens) (UniProt O94782); assay: Inhibitors of USP1/UAF1: Primary Screen; conditions: recombinant USP1/UAF1, Ub-Rhodamine cleavage fluorescence; activity change, negative = inhibition: at 57.1 µM (top of the series); further: nearly all actives have a fitted effect of over 60% in size
Procedure, shortened: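 1 nM enzyme complex + cpd, 15 min RT; start with Ub-Rho 150nM final; kinetic fluorescence ex 480/em 540, 6 reads q60 s. Buffer 50mM HEPES pH 7.8, 0.5mM EDTA, 0.1 mg/ml BSA, 1mM TCEP, 0.01% Tween-20.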
On the % scale 0 is the no-effect control and ±100 the full control effect; potency means the concentration at half of the fitted maximal effect.

| SMILES | activity change, negative = inhibition | Potency |
| --- | --- | --- |
| CN(Cc1ccccc1)C(=O)CN1CCN(S(=O)(=O)c2ccc(Cl)c(Cl)c2)CC1 | inactive: -22% | – |
| COc1ccnc(Oc2ccc(C)cc2C)c1C#N | – | inconclusive: 28.2 µM [inhibitor, single point] |
| COc1ccccc1/C=C(/C(=O)OCC(=O)Nc1cc(C)ccc1C)c1ccccc1 | – | inconclusive: 44.7 µM [inhibitor, partial curve] |
| CC(C)c1ccc(NC(=O)c2ccc(Cn3nc(N4CCN(c5ccccc5)CC4)ccc3=O)o2)cc1 | – | inconclusive: 31.6 µM [inhibitor, partial curve] |
| COc1ccc(N2C(=O)Cc3ccccc3C2=O)cc1 | – | inconclusive: 17.8 µM [inhibitor, partial curve] |
| CC1CCCCC1NC(=O)COC(=O)c1c2c(nc3ccccc13)/C(=C\c1ccco1)CC2 (stereo unspecified) | – | inconclusive: 35.5 µM [inhibitor, single point] |
| CCCCCCCCCCOC(=O)Cn1c(COc2ccc(C)cc2)[n+](C)c2ccccc21 | – | inconclusive: 44.7 µM [inhibitor, partial curve] |
| Cc1cc(C)cc(NC(=O)N2CCC(CN3CCc4ccccc4C3)CC2)c1 | inactive: -9.94% | – |
| N#Cc1c(N)n(-c2ccc(O)cc2)c2nc3ccccc3nc12 | – | inconclusive: 0.251 µM [inhibitor, full curve, poor fit] |
| Cc1ccc(NS(=O)(=O)c2ccc3[nH]c4c(c3c2)CCCCCC4)cc1 | inactive: -24.5% | – |
| COc1ccc(S(=O)(=O)N(C)CC(=O)N2CCOCC2)cc1 | – | inconclusive: 39.8 µM [inhibitor, single point] |
| COc1ccc2c(c1)C(=NNc1ccc(C(=O)O)cc1)c1cc(OC)ccc1-2 | – | inconclusive: 39.8 µM [inhibitor, partial curve] |
| C=CCN(c1ccccc1)S(=O)(=O)c1ccc(Cl)c(C(=O)OCC(=O)N(C)C2CCS(=O)(=O)C2)c1 (stereo unspecified) | – | inconclusive: 50.1 µM [inhibitor, single point] |
| O=C(CCS(=O)(=O)c1cc(Br)cc2c1N(C(=O)C1CC1)CC2)Nc1ccc(F)cc1 | inactive: -11% | – |
| Cc1ccc(CNC(=O)c2sc3nc(-c4ccccc4)cn3c2C)cc1 | – | inconclusive: 50.1 µM [inhibitor, partial curve, poor fit] |
| C#CCSc1nc(-c2ccccc2)c2cc(Cl)ccc2n1 | – | inconclusive: 4.47 µM [inhibitor, single point] |
| Cc1ccc(NC(=O)CN2C(=O)S/C(=C\c3cccn3C)C2=O)cc1 | inactive: -13.2% | – |
| Clc1ccccc1-c1nnc(-c2ccccc2CNc2ccc(Br)cc2)o1 | – | inconclusive: 50.1 µM [inhibitor, partial curve, poor fit] |
| O=[N+]([O-])/C=C\c1ccc(N2CCCC2)c(F)c1 | – | inconclusive: 44.7 µM [inhibitor, partial curve, poor fit] |
| Cc1cc(C(=O)OC(C)C(=O)Nc2nc(-c3ccccc3)cs2)c(C)o1 (stereo unspecified) | – | inconclusive: 0.316 µM [inhibitor, full curve, poor fit] |
| O=C(COc1ccc(F)cc1)NN1C(=O)CSC1=S | – | inconclusive: 12.6 µM [inhibitor, partial curve] |

By substructure: the entries above containing a halogen.

| SMILES | activity change, negative = inhibition | Potency |
| --- | --- | --- |
| CN(Cc1ccccc1)C(=O)CN1CCN(S(=O)(=O)c2ccc(Cl)c(Cl)c2)CC1 | inactive: -22% | – |
| C=CCN(c1ccccc1)S(=O)(=O)c1ccc(Cl)c(C(=O)OCC(=O)N(C)C2CCS(=O)(=O)C2)c1 (stereo unspecified) | – | inconclusive: 50.1 µM [inhibitor, single point] |
| O=C(CCS(=O)(=O)c1cc(Br)cc2c1N(C(=O)C1CC1)CC2)Nc1ccc(F)cc1 | inactive: -11% | – |
| C#CCSc1nc(-c2ccccc2)c2cc(Cl)ccc2n1 | – | inconclusive: 4.47 µM [inhibitor, single point] |
| Clc1ccccc1-c1nnc(-c2ccccc2CNc2ccc(Br)cc2)o1 | – | inconclusive: 50.1 µM [inhibitor, partial curve, poor fit] |
| O=[N+]([O-])/C=C\c1ccc(N2CCCC2)c(F)c1 | – | inconclusive: 44.7 µM [inhibitor, partial curve, poor fit] |
| O=C(COc1ccc(F)cc1)NN1C(=O)CSC1=S | – | inconclusive: 12.6 µM [inhibitor, partial curve] |

Following part:

| SMILES | activity change, negative = inhibition | Potency |
| --- | --- | --- |
| CCN(CCCNC(=O)c1cc2cc3ccc(OC)cc3nc2s1)c1cccc(C)c1 | – | inconclusive: 3.55 µM [inhibitor, full curve] |
| COc1ccc(N/N=C(\C#N)C(=N)SCc2ccccc2)cc1 | inactive: -10.3% | – |
| CC(=O)NC(c1ccc(C(C)C)cc1)c1c(O)ccc2ccccc12 (stereo unspecified) | inactive: -21.3% | – |
| COc1cc(/C=C2/SC(=S)N(CC(=O)Nc3nc4ccccc4s3)C2=O)cc(OC)c1OC | – | inconclusive: 17.8 µM [inhibitor, partial curve] |
| C=COCCn1c(=N)n(CCC)c2ccccc21 | inactive: -15.9% | – |
| N#Cc1c(-c2ccccc2)nc(SCC(=O)Nc2ccc(OC(F)(F)Cl)cc2)[nH]c1=O | – | inconclusive: 44.7 µM [inhibitor, partial curve, poor fit] |
| CC(C)c1ccc(NC(=O)CN2C(=O)COc3ccc(S(=O)(=O)N4CCCCC4)cc32)cc1 | – | inconclusive: 0.708 µM [inhibitor, full curve, poor fit] |
| CNc1ccc(/C=C(\C#N)c2ccccn2)cc1[N+](=O)[O-] | inactive: -12.4% | – |
| O=c1[nH]snc1-c1c(Cl)cccc1Cl | – | inconclusive: 22.4 µM [inhibitor, partial curve] |
| COCCNC(=S)Nc1ccc(N2CCOCC2)c(S(=O)(=O)Nc2ccccc2OC)c1 | inactive: -29.6% | – |
| CCOc1ccccc1NC(=O)CSc1nnc2[nH]c(=O)cc(-c3ccccc3)n12 | – | inconclusive: 50.1 µM [inhibitor, single point] |
| O=C(NCCn1cc(SCc2ccccc2Cl)c2ccccc21)c1cccs1 | inactive: -20.4% | – |
| Cc1cc(C)cc(NC(=O)Cn2cc(S(=O)(=O)NC(C)(C)C)c(S(=O)(=O)NC(C)(C)C)c2)c1 | – | inconclusive: 70.8 µM [inhibitor, partial curve, poor fit] |
| Cc1ccc(S(=O)(=O)NC2(C(F)(F)F)NC(=O)N(CCc3ccccc3)C2=O)cc1 (stereo unspecified) | – | inconclusive: 56.2 µM [inhibitor, single point] |
| COc1cccc2c1cc1c(=O)n(CC(=O)N3CCN(c4ccc(Cl)cc4)CC3)nc(C)n12 | – | inconclusive: 0.282 µM [inhibitor, full curve, poor fit] |
| O=C1NC[C@@H](c2ccccc2)OC(=O)[C@H](Cc2ccc(F)cc2)C/C=C\C[C@H]1CC(=O)N(CCO)Cc1ccccc1 | – | inconclusive: 2.51 µM [inhibitor, full curve, poor fit] |
| S=C(Nc1ccc(Oc2ccccc2)cc1)NC1CCCC1 | inactive: -17.7% | – |
| Nc1c(C(=O)OCC2CCCO2)c2nc3ccccc3nc2n1C1CCCCC1 (stereo unspecified) | – | inconclusive: 20 µM [inhibitor, partial curve] |
| Cn1c(=O)c2c(-c3cccc(Br)c3)n(C(C)(C)CO)cc2n(C)c1=O | – | inconclusive: 50.1 µM [inhibitor, single point] |
| Cc1cccc(/C=N/NC(=O)C(C)Nc2cccc3ccccc23)n1 (stereo unspecified) | – | inconclusive: 35.5 µM [inhibitor, single point] |
